By UniProt entry, the sequences of proteins in these tests, tags left out. Residues count along the entry.
UniProt Q08345, 439-913 limits assumed: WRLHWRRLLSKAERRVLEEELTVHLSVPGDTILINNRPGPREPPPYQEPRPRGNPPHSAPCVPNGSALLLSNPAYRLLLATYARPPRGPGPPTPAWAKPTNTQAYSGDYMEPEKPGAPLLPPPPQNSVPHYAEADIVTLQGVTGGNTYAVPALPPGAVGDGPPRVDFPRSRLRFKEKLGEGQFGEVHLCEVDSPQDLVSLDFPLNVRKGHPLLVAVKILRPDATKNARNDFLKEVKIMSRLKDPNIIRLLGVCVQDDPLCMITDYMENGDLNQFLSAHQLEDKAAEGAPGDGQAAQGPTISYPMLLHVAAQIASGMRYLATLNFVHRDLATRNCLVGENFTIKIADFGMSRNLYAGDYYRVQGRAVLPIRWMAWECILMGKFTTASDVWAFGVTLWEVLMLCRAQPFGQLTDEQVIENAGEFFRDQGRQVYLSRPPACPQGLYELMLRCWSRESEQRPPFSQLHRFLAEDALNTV

The structures given here were assigned with low confidence; some may be wrong.
These compounds were tested against intracellular domain of DDR1 (Homo sapiens, UniProt Q08345) (assay: Evaluation of DDR1 inhibition activity with HTRF KinEASE-TK kit). Details: DDR1 intracellular domain 5 ng/μL, ATP 25 μm/L, TK Substrate-biotin 1000 nmol/L, room temperature, one hour.
Protocol: The DDR1 inhibition activity in the compounds of Examples 1 to 80 was evaluated with HTRF® KinEASE-TK kit (Cisbio Bioassays).
Each test substance was dissolved in dimethyl sulfoxide and then used for the evaluation as described below. Moreover, each of test substances and reagents was diluted in the kinase buffer (Cisbio Bioassays) prepared by adding thereto MgCl2, MnCl2, DTT, and the Supplemental Enzyme buffer (Cisbio Bioassays) to concentrations of 5 mmol/L, 0.5 mmol/L, 0.25 mmol/L, and 50 nmol/L, respectively, and then used. Each test substance (in DMSO in a final concentration of 1%), the intracellular domain of DDR1 (in a final concentration of 5 ng/μL) (Carna Biosciences, Inc.), the phosphate donor ATP (in final concentration of 25 μm/L) (Sigma), and the substrate TK Substrate-biotin (in a final concentration of 1000 nmol/L) (Cisbio Bioassays) were added to a 384-well black plate (Corning) and allowed to react at room temperature for one hour. After completion of the reaction, the TK Antibody-Cryptate (Cisbio Bioassays) and the Streptavidin-XL665 (Cisbio Bioassays) were added thereto and allowed to react at room temperature for one hour. […]
The fluorescence intensity in each well was measured using a multi-label counter (Envision, PerkinElmer; excitation wavelength: 320 nm, measurement wavelength: 665 nm and 620 nm) to calculate a ratio (the fluorescence intensity at 665 nm/the fluorescence intensity at 620 nm). The inhibition rate (%) of a test substance at each concentration was calculated based on the formula below: Inhibition rate (%)=([the ratio obtained from the well containing no test substance]−[the ratio from a well containing a test substance])/([the ratio obtained from the well containing no test substance]−[the ratio obtained from the well containing no intracellular domain of DDR1 and no test substance])×100.
The calculated inhibition rates were fitted to a sigmoidal dose-response curve by regression analysis using the Prism 5.04 (GraphPad Software, Inc.) to calculate the IC50 value of the test substance.
`COc1ccc(OC(F)(F)F)cc1NC(=O)N[C@H]1CC[C@H](COc2cncc(C(N)=O)c2)CC1` gave an IC50 of 0.00665 µM. `COc1ccc(OC(F)(F)F)cc1NC(=O)N[C@H]1CC[C@H](Oc2ccncc2)CC1` was tested, and the IC50 was 0.204 µM. For `COc1ccc(OC(F)(F)F)cc1NC(=O)N[C@H]1CC[C@H](Oc2ccnc(N3CCOCC3)c2)CC1`, the IC50 was 0.171 µM.
